Source: the supplement of paper PMC6411743
± gives the standard deviation of the averaged measurements. The entries are a selection whose mix differs from that of the whole data set.

Columns and labels:
Assay in all cases: NP40-soluble protein abundance relative to vehicle (solubility fold change) (ratio); higher = more soluble protein in presence of ATP
[1] = target: T1, UniProt O75688 and related entries
T1 sequence (whole entry): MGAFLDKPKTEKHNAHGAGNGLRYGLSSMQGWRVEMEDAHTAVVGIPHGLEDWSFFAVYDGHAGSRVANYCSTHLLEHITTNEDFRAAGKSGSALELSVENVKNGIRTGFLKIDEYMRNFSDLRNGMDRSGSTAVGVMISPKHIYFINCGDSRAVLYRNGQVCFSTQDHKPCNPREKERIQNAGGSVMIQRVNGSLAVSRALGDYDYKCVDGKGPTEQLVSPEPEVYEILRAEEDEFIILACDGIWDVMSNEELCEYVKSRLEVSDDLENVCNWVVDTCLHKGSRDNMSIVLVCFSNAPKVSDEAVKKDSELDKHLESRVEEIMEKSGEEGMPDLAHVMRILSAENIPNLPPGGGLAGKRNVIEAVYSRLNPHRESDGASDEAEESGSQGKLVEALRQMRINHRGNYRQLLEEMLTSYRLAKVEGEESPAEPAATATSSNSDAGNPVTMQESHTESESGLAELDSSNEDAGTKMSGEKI
Summary of the method: (§1)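 Data come from three independent experiments in which Dounce-homogenised Jurkat crude lysate was treated at eight concentrations from 0.1 to 10 mM. Treatment ran 10 min at room temperature and then 3 min at 37 °C, after which 0.8% NP40 and benzonase were added for 60 min at 4 °C before ultracentrifugation. The supernatant underwent TMT labelling and LC-MS/MS, and vsn-normalised intensities were expressed as fold change against the detergent-processed vehicle in each replicate.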

[2] = target: T2, UniProt O75845
T2 sequence (whole entry): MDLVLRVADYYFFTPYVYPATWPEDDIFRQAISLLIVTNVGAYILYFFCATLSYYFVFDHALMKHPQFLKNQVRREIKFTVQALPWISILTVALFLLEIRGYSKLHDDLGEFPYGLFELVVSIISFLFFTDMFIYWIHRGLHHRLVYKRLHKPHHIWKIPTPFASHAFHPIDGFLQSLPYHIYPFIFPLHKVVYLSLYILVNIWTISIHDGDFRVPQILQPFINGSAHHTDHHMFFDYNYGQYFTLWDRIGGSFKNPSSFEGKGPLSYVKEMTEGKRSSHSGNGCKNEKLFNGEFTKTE
Summary of the method: as §1

[3] = target: T3, UniProt O75934
T3 sequence (whole entry): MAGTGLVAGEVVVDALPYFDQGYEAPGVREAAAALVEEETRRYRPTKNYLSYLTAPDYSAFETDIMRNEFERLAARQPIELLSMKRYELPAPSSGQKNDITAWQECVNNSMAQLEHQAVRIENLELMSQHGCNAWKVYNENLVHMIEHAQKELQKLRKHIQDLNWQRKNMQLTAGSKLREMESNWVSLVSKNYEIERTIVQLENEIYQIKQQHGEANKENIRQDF
Summary of the method: as §1

[4] = target: T4, UniProt O94864 and related entries
T4 sequence (whole entry): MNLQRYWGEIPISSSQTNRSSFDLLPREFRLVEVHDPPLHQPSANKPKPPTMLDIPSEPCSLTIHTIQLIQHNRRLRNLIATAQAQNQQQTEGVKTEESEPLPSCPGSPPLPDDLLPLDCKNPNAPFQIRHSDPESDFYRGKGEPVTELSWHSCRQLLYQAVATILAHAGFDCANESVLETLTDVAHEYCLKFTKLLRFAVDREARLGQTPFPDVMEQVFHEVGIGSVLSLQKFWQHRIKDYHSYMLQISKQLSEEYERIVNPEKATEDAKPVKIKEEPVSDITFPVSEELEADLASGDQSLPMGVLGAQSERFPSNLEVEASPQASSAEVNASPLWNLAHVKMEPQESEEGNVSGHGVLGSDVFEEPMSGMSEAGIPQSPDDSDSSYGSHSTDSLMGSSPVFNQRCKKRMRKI
Summary of the method: as §1

[5] = target: T5, UniProt O95479 and related entries
T5 sequence (whole entry): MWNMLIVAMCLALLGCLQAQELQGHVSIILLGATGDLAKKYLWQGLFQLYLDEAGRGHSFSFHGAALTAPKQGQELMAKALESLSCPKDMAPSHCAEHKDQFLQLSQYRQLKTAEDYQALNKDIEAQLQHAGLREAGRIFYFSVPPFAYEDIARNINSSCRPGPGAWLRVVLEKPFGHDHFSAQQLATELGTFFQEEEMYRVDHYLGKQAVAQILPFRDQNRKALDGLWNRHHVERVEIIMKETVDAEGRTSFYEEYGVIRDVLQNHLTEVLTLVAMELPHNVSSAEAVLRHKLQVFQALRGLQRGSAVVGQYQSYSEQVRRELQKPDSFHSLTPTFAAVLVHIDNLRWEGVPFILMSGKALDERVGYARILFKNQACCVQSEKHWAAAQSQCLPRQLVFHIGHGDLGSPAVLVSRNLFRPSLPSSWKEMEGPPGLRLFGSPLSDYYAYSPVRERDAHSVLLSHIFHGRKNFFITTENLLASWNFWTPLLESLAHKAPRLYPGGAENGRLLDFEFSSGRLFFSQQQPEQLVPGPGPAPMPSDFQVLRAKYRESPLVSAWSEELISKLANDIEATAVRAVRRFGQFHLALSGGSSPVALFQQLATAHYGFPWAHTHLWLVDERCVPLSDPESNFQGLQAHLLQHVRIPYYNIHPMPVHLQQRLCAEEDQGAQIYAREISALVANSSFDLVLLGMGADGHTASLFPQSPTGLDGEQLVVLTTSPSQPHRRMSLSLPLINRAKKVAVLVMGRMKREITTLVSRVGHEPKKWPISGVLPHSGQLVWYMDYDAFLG
Summary of the method: as §1

**Q.** With `Nc1ncnc2c1ncn2[C@@H]1O[C@H](COP(=O)(O)OP(=O)(O)OP(=O)(O)O)[C@@H](O)[C@H]1O` [adenosine triphosphate] as the compound, how does the NP40-soluble protein abundance ([1]; concentration: 1mM) read?
**A.** Its NP40-soluble protein abundance is 0.981 ± 0.047.

**Q.** And the NP40-soluble protein abundance ([1]; concentration: 2mM)?
**A.** The NP40-soluble protein abundance was 0.977 ± 0.037.

**Q.** And the NP40-soluble protein abundance ([1]; concentration: 4mM)?
**A.** Its NP40-soluble protein abundance is 0.959 ± 0.056.

**Q.** What about the NP40-soluble protein abundance ([1]; concentration: 6mM) of the same compound?
**A.** The NP40-soluble protein abundance was 0.964 ± 0.013.

**Q.** And the NP40-soluble protein abundance ([1]; concentration: 8mM)?
**A.** Its NP40-soluble protein abundance is 0.934 ± 0.048.

**Q.** What about the NP40-soluble protein abundance ([1]; concentration: 10mM) of the same compound?
**A.** The NP40-soluble protein abundance was 0.965 ± 0.082.

**Q.** What about the NP40-soluble protein abundance ([2]; concentration: 1mM) of the same compound?
**A.** Its NP40-soluble protein abundance is 1.01 ± 0.085.

**Q.** What about the NP40-soluble protein abundance ([2]; concentration: 2mM) of the same compound?
**A.** The NP40-soluble protein abundance was 0.998 ± 0.079.

**Q.** What about the NP40-soluble protein abundance ([2]; concentration: 4mM) of the same compound?
**A.** Its NP40-soluble protein abundance is 1.05 ± 0.096.

**Q.** What about the NP40-soluble protein abundance ([2]; concentration: 6mM) of the same compound?
**A.** Its NP40-soluble protein abundance is 0.957 ± 0.077.

**Q.** What about the NP40-soluble protein abundance ([2]; concentration: 8mM) of the same compound?
**A.** The NP40-soluble protein abundance was 1.02 ± 0.035.

**Q.** What about the NP40-soluble protein abundance ([2]; concentration: 10mM) of the same compound?
**A.** The NP40-soluble protein abundance was 0.987 ± 0.072.

**Q.** What about the NP40-soluble protein abundance ([3]; concentration: 1mM) of the same compound?
**A.** The NP40-soluble protein abundance was 1.02 ± 0.072.

**Q.** What about the NP40-soluble protein abundance ([3]; concentration: 2mM) of the same compound?
**A.** The NP40-soluble protein abundance was 1 ± 0.06.

**Q.** And the NP40-soluble protein abundance ([3]; concentration: 4mM)?
**A.** Its NP40-soluble protein abundance is 1.05 ± 0.057.

**Q.** And the NP40-soluble protein abundance ([3]; concentration: 6mM)?
**A.** The NP40-soluble protein abundance was 1.1 ± 0.093.

**Q.** And the NP40-soluble protein abundance ([3]; concentration: 8mM)?
**A.** Its NP40-soluble protein abundance is 1.14 ± 0.054.

**Q.** And the NP40-soluble protein abundance ([3]; concentration: 10mM)?
**A.** The NP40-soluble protein abundance was 1.11 ± 0.06.

**Q.** What about the NP40-soluble protein abundance ([4]; concentration: 1mM) of the same compound?
**A.** The NP40-soluble protein abundance was 0.995 ± 0.057.

**Q.** And the NP40-soluble protein abundance ([4]; concentration: 2mM)?
**A.** The NP40-soluble protein abundance was 0.947 ± 0.097.

**Q.** What about the NP40-soluble protein abundance ([4]; concentration: 4mM) of the same compound?
**A.** The NP40-soluble protein abundance was 0.965 ± 0.1.

**Q.** What about the NP40-soluble protein abundance ([4]; concentration: 6mM) of the same compound?
**A.** The NP40-soluble protein abundance was 0.992 ± 0.086.

**Q.** And the NP40-soluble protein abundance ([4]; concentration: 8mM)?
**A.** Its NP40-soluble protein abundance is 1.04 ± 0.087.

**Q.** What about the NP40-soluble protein abundance ([4]; concentration: 10mM) of the same compound?
**A.** Its NP40-soluble protein abundance is 0.913 ± 0.11.

**Q.** And the NP40-soluble protein abundance ([5]; concentration: 1mM)?
**A.** Its NP40-soluble protein abundance is 1.06 ± 0.083.

**Q.** And the NP40-soluble protein abundance ([5]; concentration: 2mM)?
**A.** The NP40-soluble protein abundance was 1.02 ± 0.049.

**Q.** And the NP40-soluble protein abundance ([5]; concentration: 4mM)?
**A.** Its NP40-soluble protein abundance is 1.04 ± 0.056.
